At least one compound was matched to its structure with a doubt left.
System: 3T3-L1 cells
Assay: Gene profile of 3T3-L1 cells treated with Rosiglitazone after PPARγ1 antisense knockdown
Type: cell-based, murine
Conditions: antisense 72 hours
Method: 3T3-L1 cells were treated for 72 hours with an antisense construct whose nucleic acid sequence was complementary to PPARγ1 and treated with Rosiglitazone. As a separate control, 3T3-L1 were cells treated with the antisense construct, but without Rosiglitazone. Gene expression levels were determined using Affymetix microarray analysis. Following the incubation, RNA was extracted from the cells using Trizol (Invitrogen) followed by cleanup using an RNeasy kit (Qiagen) including DNase I treatment. Probes from each of these cell populations were prepared by reverse transcription-polymerase chain reaction (RT-PCR) and subsequently biotin labeled by in vitro transcription using the BioArray High Yield RNA Transcript Labeling Kit (Enzo). The probes were then hybridized to U74Aver2 Affymetrix gene chips. The hybridization was conducted as follows The hybridization was for 16 hours at 45° C. and 60 RPM in a rotisserie box.

## CN(CCOc1ccc(CC2SC(=O)NC2=O)cc1)c1ccccn1 (stereo not shown) [Rosiglitazone]
  genes no longer regulated by Rosiglitazone treatment after PPARγ1 antisense knockdown: Cytochrome c oxidase and Xanthine dehydrogenase and AGP1 and Purine nucleoside Phosphorylase and FK506 binding protein
